Assay results

Data taken from PubChem BioAssay AID1159506, deposited by NCATS (2015).

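Genome-wide siRNA knockdown in TC32 Ewing sarcoma cells, comparing luciferase light from an NR0B1-promoter reporter with a CMV-promoter reporter 48 hours after transfection. Each siRNA was applied at 20 nM. A z-score of the log NR0B1-over-CMV signal, less the median of siRNAs with the same seed; more negative means a stronger specific loss of the NR0B1 reporter.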

The strongest results of the screen are mostly left out here. Sequences are the guide (antisense) strand, without overhang.

- UUACUGAGCCUUACUAGUU against AKAP7 : seed-corrected z-score -0.2654
- UUUUAAAAACUCGGCAUCC against PNMAL1 : seed-corrected z-score 0.3893
- UGAGUAGACACAGCUUGCA against HLA-DQB2 : seed-corrected z-score 0.9297
- UACCGCUAAGGCAAAAUCC against OSBPL8 : seed-corrected z-score -0.09477
- AAACCGACAGCUGGUAUCG against LONRF1 : seed-corrected z-score 0.2366
- UUUUCGGUAUGUCUGAACG against ELOVL2 : seed-corrected z-score 0.122
- UUUGGAGACUGCGAGGGUG against HSPA12B : seed-corrected z-score -1.002
- UCGGUGUAGACUCUAAUCG against KMT2A : seed-corrected z-score -0.1528
- UUGGUAACAUCUAUCAAGG against ASAH1 : seed-corrected z-score 0.1577
- UCAGUUUGUAAACAGGCUC against HACD3 : seed-corrected z-score 0.7113
- UAGAAUUACUUAGAGCUGG against HIST1H2BF : seed-corrected z-score 0.1871
- UUGUUCUUCAGAAAUAAGC against TMEM55A : seed-corrected z-score -0.2926
- UACUGAAGAGGUUGUGGUC against DHFR : seed-corrected z-score -0.0717
- UUUGGAGGAUUUGUGGUCG against SCYL1 : seed-corrected z-score -0.5837
- UAGGUAACUACAAAUCGUC against DZIP3 : seed-corrected z-score 1.103
- UGUGGUUGUAGAGGUGUGA against PRR35 : seed-corrected z-score -1.744
- UAGGUGUACAGGAACUCAC against CFAP47 : seed-corrected z-score -1.267
- UACUUUUUGGGUUGCAUUU against CCT7 : seed-corrected z-score -0.4396
- UGCACUGUAACAUUAUCAC against DMTF1 : seed-corrected z-score 0.08413
- UAUCGAACACCAUCACCUG against ZFYVE27 : seed-corrected z-score -0.1287
- UAAGUUCCCAGCUAGGUCC against GTF2IRD2 : seed-corrected z-score 0.4659
- UCAGUAAGUAAGAAGGUCC against PI15 : seed-corrected z-score 0.1592
- UCAUGAUCCUCUGGAAUGC against PDE12 : seed-corrected z-score -0.3928
- UUGCUGUUGAUCUCGAGUC against SUFU : seed-corrected z-score 0.5239
- UCAACUUUUUGGUACUUCG against USP21 : seed-corrected z-score 0.8697
- AAGGUCUACAGCUAAAUGG against USP51 : seed-corrected z-score -0.3753
- UGAGGAUCAGGCAUAAAGG against SULT1C3 : seed-corrected z-score -0.9394
- UUCAGUGUCGUAGUACGCG against EIF3F : seed-corrected z-score 1.3
- AACCAAACAGGUACCCUCC against CHI3L2 : seed-corrected z-score -0.7643
- ACACCUUCUCGGGUCUUGC against SNCB : seed-corrected z-score 1.352
- UUCAGGCUCUGUCUGGUUC against ABCC6 : seed-corrected z-score -0.8714

Repeated from the top, 2 entries:

Sequence	gene	seed-corrected z-score
UUACUGAGCCUUACUAGUU	AKAP7	-0.2654
UUUUAAAAACUCGGCAUCC	PNMAL1	0.3893